{"source": "patent US20240377385A1", "about": "“METHODS AND COMPOSITIONS OF MATTER FOR TREATING CANCER AND PREDICTING RESPONSE TO THERAPY” (ICCA INC., priority 2023, published 2024)", "origin": "cited, not measured here", "tested_on": "monocytes derived from human peripheral blood", "settings": "cited from earlier work", "note": "At least one structure is not confirmed: it was looked up by name or label, or the drawing left a doubt.", "data": [{"smiles": "CCOCc1nc2c(N)nc3ccccc3c2n1CC(C)(C)O", "note": "[Group R-848, resiquimod]", "values": [{"measurement": "ADCC associated receptors FcgammaRI, FcgammaRIIa, and the common gamma-subunit", "result": "upregulation"}, {"measurement": "inhibitory FcgammaRIIb molecule", "result": "profound downregulation"}]}]}
